The results in this text go back to paper PMC10683239.

Amino acid sequences for entries named in this document (tags omitted).
UniProt Q13426: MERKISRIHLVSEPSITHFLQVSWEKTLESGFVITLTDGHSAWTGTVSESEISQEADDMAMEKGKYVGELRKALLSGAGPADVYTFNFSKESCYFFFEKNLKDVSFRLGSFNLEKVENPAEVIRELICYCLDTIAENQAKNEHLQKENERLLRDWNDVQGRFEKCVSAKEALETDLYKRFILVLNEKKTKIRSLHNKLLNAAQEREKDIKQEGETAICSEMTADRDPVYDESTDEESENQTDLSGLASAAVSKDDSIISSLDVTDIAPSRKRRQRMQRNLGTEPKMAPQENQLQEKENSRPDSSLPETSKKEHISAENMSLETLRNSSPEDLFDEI

The target in this test is XRCC4 (human (endogenous in Panc-1)) (UniProt Q13426). Description: co-IP; Pierce Co-IP Kit; 10 µg anti-SAE1/anti-XRCC4 or control IgG on resin with 500 µg protein at 4 °C overnight, western blot; Panc-1 cells treated with CAF-derived EVs (CAFs with lenti-circBIRC6-shRNA or lenti-NC-shRNA; SAE1 siRNA; XRCC4 mutant plasmids). A general note: Immunoblotting shows a protein as a band on a membrane.

No constants are given. Whether binding was seen depends on the method and setting. In cells and extracts the contact can be indirect. Some binding calls cover weakened binding; strength is not graded here.

B1: SAE1, an E1 SUMO-activating enzyme (enzyme, UniProt Q9UBE0 1-346)
chain: MVEKEEAGGGISEEEAAQYDRQIRLWGLEAQKRLRASRVLLVGLKGLGAEIAKNLILAGVKGLTMLDHEQVTPEDPGAQFLIRTGSVGRNRAEASLERAQNLNPMVDVKVDTEDIEKKPESFFTQFDAVCLTCCSRDVIVKVDQICHKNSIKFFTGDVFGYHGYTFANLGEHEFVEEKTKVAKVSQGVEDGPDTKRAKLDSSETTMVKKKVVFCPVKEALEVDWSSEKAKAALKRTTSDYFLLQVLLKFRTDKGRDPSSDTYEEDSELLLQIRNDVLDSLGISPDLLPEDFVRYCFSEMAPVCAVVGGILAQEIVKALSQRDPPHNNFFFFDGMKGNGIVECLGPK
Consider B1, for which the binding entry was “binds”.
